Reference: the supplement of paper PMC6411743
± gives the standard deviation of the averaged measurements. The entries are a selection whose mix differs from that of the whole data set. Most entries show no effect beyond the scatter of the controls.

Sequences of proteins named here, by UniProt entry; tags and fusion partners are left off. A change or cut given only in a name is not applied to a line headed by its entry.
UniProt P20042, whole entry: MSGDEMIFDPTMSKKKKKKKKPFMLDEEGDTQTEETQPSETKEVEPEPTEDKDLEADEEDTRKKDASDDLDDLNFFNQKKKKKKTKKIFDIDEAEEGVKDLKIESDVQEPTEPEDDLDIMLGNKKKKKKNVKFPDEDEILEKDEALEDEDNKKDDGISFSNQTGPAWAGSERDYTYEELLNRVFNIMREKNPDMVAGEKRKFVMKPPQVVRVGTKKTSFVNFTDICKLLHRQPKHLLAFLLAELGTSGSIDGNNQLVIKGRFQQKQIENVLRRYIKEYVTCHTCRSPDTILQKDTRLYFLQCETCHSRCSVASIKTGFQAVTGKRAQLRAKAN
UniProt P25098: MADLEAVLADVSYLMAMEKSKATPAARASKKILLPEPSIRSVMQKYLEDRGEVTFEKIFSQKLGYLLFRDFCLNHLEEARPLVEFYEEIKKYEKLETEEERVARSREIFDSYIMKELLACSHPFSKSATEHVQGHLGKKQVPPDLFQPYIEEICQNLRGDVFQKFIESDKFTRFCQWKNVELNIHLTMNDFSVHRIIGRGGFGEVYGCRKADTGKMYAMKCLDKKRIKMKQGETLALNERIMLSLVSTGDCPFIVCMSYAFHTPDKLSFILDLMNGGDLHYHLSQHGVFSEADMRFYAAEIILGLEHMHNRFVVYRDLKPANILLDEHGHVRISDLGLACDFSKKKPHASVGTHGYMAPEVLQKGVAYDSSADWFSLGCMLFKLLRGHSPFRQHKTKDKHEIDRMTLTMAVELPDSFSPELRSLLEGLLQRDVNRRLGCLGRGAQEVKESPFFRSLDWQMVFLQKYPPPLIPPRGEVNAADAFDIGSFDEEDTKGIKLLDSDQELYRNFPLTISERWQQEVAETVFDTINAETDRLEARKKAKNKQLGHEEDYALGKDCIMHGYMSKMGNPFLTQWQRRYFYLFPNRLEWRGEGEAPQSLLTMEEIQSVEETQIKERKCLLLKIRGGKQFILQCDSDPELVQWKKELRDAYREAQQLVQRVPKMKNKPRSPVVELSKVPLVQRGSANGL
UniProt P28838: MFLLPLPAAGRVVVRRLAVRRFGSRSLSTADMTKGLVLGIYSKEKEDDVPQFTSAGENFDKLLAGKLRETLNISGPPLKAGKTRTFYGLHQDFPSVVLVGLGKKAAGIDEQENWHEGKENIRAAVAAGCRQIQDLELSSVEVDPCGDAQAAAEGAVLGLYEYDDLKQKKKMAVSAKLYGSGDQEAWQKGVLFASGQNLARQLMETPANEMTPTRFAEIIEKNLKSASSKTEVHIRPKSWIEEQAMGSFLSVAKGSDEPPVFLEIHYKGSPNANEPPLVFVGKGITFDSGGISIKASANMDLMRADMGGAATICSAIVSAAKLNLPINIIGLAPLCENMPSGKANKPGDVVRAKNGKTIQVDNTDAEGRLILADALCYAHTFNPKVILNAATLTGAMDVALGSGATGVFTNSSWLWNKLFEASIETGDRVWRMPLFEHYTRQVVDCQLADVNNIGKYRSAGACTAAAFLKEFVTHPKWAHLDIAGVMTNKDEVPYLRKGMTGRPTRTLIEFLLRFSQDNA
UniProt P23443: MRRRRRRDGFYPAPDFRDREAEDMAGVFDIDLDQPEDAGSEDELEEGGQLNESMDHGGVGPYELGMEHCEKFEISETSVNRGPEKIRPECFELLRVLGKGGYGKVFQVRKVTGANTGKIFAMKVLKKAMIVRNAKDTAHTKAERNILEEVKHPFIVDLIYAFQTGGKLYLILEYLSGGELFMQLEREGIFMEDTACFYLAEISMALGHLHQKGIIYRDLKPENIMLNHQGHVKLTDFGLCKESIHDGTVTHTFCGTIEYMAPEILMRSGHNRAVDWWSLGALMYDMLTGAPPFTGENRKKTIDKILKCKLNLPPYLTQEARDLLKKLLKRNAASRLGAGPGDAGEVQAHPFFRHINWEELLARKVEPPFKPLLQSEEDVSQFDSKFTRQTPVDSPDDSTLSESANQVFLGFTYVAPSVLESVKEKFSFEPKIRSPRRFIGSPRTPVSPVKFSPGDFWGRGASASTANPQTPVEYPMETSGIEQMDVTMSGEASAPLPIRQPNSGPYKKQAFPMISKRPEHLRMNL
UniProt P35626: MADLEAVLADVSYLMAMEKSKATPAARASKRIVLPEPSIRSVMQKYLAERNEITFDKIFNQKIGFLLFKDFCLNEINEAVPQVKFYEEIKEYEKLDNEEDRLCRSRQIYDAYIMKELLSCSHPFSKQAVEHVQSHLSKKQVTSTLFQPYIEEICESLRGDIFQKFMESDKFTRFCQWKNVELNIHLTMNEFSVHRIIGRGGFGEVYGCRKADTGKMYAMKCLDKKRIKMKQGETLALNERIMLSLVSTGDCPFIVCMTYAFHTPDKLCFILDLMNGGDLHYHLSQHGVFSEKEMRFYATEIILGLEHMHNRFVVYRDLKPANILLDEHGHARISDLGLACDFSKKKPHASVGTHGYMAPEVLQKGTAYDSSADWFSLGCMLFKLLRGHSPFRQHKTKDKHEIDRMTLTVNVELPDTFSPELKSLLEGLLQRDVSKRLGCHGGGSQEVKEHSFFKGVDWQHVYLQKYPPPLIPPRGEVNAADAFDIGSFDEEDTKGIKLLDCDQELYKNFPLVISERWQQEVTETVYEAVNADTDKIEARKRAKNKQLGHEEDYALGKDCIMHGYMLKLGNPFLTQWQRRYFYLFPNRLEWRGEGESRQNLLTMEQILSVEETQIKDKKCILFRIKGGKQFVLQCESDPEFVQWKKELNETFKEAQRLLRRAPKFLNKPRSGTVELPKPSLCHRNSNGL
UniProt P24666: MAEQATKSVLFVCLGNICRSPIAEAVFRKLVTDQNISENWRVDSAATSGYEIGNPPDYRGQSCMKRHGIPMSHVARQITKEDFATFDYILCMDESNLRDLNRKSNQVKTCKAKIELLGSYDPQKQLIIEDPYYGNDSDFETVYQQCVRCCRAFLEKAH
UniProt P22314: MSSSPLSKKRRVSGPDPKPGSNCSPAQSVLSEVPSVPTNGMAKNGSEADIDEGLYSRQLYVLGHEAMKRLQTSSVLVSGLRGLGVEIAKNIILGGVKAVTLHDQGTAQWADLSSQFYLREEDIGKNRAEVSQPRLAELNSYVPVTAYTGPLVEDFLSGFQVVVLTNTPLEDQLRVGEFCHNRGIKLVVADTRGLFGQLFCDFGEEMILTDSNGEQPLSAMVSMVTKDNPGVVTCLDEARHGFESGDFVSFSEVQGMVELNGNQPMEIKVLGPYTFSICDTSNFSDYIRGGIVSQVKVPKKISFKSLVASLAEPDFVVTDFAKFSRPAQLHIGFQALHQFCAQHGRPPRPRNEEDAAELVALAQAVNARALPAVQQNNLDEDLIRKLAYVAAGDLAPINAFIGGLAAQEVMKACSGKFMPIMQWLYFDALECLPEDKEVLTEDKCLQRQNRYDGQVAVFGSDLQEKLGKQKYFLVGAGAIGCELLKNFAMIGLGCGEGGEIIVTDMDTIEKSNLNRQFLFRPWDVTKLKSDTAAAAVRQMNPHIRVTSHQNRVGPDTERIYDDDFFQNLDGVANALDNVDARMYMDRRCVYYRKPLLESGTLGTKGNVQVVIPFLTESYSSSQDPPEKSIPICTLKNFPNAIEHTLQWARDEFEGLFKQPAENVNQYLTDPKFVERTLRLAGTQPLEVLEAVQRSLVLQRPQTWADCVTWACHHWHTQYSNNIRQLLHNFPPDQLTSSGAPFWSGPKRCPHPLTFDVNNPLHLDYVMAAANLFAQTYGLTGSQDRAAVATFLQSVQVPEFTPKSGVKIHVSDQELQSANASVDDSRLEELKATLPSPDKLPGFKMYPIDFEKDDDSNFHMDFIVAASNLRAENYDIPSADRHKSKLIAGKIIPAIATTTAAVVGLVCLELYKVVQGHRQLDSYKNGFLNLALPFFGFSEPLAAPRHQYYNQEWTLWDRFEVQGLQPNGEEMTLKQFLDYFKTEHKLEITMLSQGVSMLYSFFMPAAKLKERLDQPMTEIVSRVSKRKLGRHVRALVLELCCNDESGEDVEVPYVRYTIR
UniProt P19525: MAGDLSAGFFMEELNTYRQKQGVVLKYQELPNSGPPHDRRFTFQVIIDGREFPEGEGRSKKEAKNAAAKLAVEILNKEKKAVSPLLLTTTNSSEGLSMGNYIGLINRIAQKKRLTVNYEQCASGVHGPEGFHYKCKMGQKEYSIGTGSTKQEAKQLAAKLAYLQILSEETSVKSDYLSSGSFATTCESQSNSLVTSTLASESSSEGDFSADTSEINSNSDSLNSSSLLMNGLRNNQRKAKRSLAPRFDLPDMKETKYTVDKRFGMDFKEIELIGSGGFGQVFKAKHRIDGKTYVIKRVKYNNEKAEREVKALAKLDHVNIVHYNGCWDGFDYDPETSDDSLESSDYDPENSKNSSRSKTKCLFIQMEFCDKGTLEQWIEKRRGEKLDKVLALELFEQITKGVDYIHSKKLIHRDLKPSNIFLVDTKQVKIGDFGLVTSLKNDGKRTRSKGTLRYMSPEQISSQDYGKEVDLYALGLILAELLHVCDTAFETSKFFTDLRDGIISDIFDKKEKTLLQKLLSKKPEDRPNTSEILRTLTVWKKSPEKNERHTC
UniProt P35240: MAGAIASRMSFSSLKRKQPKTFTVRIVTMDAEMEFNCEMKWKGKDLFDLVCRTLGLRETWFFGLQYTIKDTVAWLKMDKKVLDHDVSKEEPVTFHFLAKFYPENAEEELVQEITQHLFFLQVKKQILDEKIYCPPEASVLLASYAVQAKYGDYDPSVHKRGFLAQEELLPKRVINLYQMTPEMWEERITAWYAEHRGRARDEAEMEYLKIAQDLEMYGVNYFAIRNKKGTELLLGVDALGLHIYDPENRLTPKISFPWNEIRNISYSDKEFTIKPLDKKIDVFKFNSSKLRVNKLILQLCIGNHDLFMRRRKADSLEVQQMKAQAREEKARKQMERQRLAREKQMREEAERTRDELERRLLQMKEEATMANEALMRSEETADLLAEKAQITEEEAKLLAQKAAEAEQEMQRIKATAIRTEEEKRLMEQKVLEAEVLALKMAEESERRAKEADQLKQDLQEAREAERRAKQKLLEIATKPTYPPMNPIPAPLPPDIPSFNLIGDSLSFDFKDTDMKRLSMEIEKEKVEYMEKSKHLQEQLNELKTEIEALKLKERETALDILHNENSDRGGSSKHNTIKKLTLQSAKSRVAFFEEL
UniProt P16949: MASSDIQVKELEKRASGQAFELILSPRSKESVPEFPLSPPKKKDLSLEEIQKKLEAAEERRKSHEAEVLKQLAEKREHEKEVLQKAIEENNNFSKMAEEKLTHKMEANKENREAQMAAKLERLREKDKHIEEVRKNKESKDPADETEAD
UniProt P17480: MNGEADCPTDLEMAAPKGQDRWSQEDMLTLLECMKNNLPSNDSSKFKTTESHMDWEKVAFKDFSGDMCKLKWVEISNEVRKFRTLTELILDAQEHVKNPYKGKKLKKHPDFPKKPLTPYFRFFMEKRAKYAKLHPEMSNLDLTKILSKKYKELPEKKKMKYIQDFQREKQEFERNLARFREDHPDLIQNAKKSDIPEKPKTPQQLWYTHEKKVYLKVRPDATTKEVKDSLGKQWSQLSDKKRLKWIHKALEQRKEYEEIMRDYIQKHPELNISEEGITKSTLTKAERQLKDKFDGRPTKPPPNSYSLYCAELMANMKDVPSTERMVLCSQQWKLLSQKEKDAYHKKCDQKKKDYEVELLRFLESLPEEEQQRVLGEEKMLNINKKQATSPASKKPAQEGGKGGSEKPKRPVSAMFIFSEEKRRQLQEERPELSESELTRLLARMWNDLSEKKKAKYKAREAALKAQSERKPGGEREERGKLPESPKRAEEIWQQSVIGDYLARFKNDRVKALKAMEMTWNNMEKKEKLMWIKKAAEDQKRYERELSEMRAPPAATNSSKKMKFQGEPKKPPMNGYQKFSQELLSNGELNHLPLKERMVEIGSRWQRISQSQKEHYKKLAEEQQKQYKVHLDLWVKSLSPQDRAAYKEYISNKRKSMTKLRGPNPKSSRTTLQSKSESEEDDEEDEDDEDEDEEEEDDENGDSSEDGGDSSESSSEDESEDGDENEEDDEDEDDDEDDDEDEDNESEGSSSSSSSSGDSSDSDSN
UniProt P28702: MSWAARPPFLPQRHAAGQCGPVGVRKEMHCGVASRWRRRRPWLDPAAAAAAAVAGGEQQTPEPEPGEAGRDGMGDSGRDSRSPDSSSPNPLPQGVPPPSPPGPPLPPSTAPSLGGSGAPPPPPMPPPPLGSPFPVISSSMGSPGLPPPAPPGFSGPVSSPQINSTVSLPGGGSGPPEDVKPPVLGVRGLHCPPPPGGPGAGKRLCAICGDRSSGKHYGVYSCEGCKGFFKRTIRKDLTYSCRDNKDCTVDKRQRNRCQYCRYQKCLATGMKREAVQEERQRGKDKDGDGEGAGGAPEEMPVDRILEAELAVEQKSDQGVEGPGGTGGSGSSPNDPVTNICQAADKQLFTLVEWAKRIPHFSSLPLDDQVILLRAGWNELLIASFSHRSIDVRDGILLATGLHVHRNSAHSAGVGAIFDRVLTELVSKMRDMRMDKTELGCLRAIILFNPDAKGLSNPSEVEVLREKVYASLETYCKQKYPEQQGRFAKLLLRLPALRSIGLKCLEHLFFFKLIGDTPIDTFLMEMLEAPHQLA

Compound: Nc1ncnc2c1ncn2[C@@H]1O[C@H](COP(=O)(O)OP(=O)(O)OP(=O)(O)O)[C@@H](O)[C@H]1O [adenosine triphosphate]
Experiment: NP40-soluble protein abundance relative to vehicle (solubility fold change) (ratio); higher = more soluble protein in presence of ATP
Method in brief: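 Jurkat crude lysate prepared with a Dounce homogeniser was treated at eight concentrations spanning 0.1 to 10 mM, 10 min at room temperature then 3 min at 37 °C. Solubilisation with 0.8% NP40 and benzonase and ultracentrifugation preceded TMT labelling of the supernatant for LC-MS/MS. Fold change against the detergent-processed vehicle was determined per replicate from vsn-normalised intensities, across three independent experiments.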

Target	NP40-soluble protein abundance (concentration: 0.1mM)	NP40-soluble protein abundance (concentration: 0.5mM)
ABCC1 (UniProt P33527)	1.02 ± 0.018	1 ± 0.013
UniProt P19174-2|P19174	1.06 ± 0.07	1.01 ± 0.074
HMGB2 (UniProt P26583)	0.897 ± 0.17	0.845 ± 0.22
TCEA1 (UniProt P23193)	0.988 ± 0.027	0.973 ± 0.016
UniProt P17706 and related entries	0.991 ± 0.093	0.995 ± 0.077
UniProt P33241 and related entries	0.788 ± 0.056	0.942 ± 0.036
UniProt P33240 and related entries	0.966 ± 0.038	0.962 ± 0.034
DEK (UniProt P35659)	1 ± 0.023	1.04 ± 0.015
UniProt P20073 and related entries	0.96 ± 0.026	0.929 ± 0.047
GCH1 (UniProt P30793)	0.994 ± 0.031	0.9504 ± 0.0056
EIF2S2 (UniProt P20042)	0.9739 ± 0.0085	1.03 ± 0.025
UniProt P17252	1.04 ± 0.068	1.04 ± 0.066
PRKCH (UniProt P24723)	1.05 ± 0.029	1.07 ± 0.043
PPP2R1A (UniProt P30153)	0.979 ± 0.025	0.965 ± 0.033
ERP29 (UniProt P30040)	0.958 ± 0.021	0.956 ± 0.03
UniProt P25098	1.03 ± 0.052	1.01 ± 0.039
RPA3 (UniProt P35244)	0.971 ± 0.013	0.964 ± 0.099
PRDX6 (UniProt P30041)	0.983 ± 0.019	0.944 ± 0.079
VARS (UniProt P26640)	1.05 ± 0.073	1.01 ± 0.036
ICAM3 (UniProt P32942)	0.895 ± 0.013	0.906 ± 0.054
TNFAIP3 (UniProt P21580)	1.01 ± 0.045	0.9318 ± 0.0061
ZNF22 (UniProt P17026)	1.1 ± 0.12	1.08 ± 0.055
DDX5 (UniProt P17844)	1.04 ± 0.067	1.08 ± 0.092
HNRNPA2B1 (UniProt P22626)	1.01 ± 0.11	1.08 ± 0.098

Target	NP40-soluble protein abundance (concentration: 0.1mM)	NP40-soluble protein abundance (concentration: 0.5mM)
CORO1A (UniProt P31146)	0.999 ± 0.034	1.07 ± 0.061
LRPAP1 (UniProt P30533)	0.949 ± 0.064	0.943 ± 0.03
SCP2 (UniProt P22307)	0.938 ± 0.012	0.941 ± 0.056
GSTM3 (UniProt P21266)	0.978 ± 0.069	0.955 ± 0.031
PSMB8 (UniProt P28062)	0.98 ± 0.049	0.9754 ± 0.0026
NDUFB7 (UniProt P17568)	0.909 ± 0.11	0.885 ± 0.025
UniProt P32856 and related entries	0.99 ± 0.014	1.03 ± 0.03
UniProt P31327 and related entries	1.02 ± 0.14	0.969 ± 0.12
WEE1 (UniProt P30291)	1 ± 0.04	1.05 ± 0.049
UniProt P28838 and related entries	0.993 ± 0.049	1.01 ± 0.061
UniProt P23511 and related entries	0.899 ± 0.024	0.945 ± 0.058
IL2RG (UniProt P31785)	0.958 ± 0.043	0.917 ± 0.05
FAH (UniProt P16930)	1.01 ± 0.071	1.02 ± 0.069
UniProt P23443 and related entries	1.01 ± 0.066	1.02 ± 0.032
UniProt P35626	1.04 ± 0.036	1.06 ± 0.048
UniProt P24666 and related entries	0.997 ± 0.038	0.955 ± 0.03
CTH (UniProt P32929)	1.06 ± 0.099	1.01 ± 0.063
UniProt P23634-6	1.08 ± 0.12	1.06 ± 0.068
NCL (UniProt P19338)	0.876 ± 0.03	0.699 ± 0.047
UniProt P22314 and related entries	1.02 ± 0.049	1.01 ± 0.045
UniProt P32019 and related entries	1.09 ± 0.16	1.07 ± 0.13
CALR (UniProt P27797)	0.992 ± 0.056	1.03 ± 0.076
PTPN1 (UniProt P18031)	1.04 ± 0.063	1.02 ± 0.063
PSMB4 (UniProt P28070)	0.968 ± 0.033	0.981 ± 0.03

Target	NP40-soluble protein abundance (concentration: 0.1mM)	NP40-soluble protein abundance (concentration: 0.5mM)
UniProt P19525	1.07 ± 0.082	1.11 ± 0.056
RPL13 (UniProt P26373)	0.937 ± 0.17	0.916 ± 0.1
PSMB6 (UniProt P28072)	0.969 ± 0.031	0.928 ± 0.04
UniProt P35240 and related entries	1.02 ± 0.047	1.03 ± 0.045
DNAJA1 (UniProt P31689)	1.01 ± 0.036	1.02 ± 0.052
UniProt P23497 and related entries	1.01 ± 0.029	0.997 ± 0.017
UniProt P29372 and related entries	1.03 ± 0.034	1.08 ± 0.022
JUND (UniProt P17535)	0.93 ± 0.16	0.844 ± 0.16
HSPA4 (UniProt P34932)	1 ± 0.035	1.01 ± 0.047
CHM (UniProt P24386)	1 ± 0.065	1.04 ± 0.063
UniProt P28799 and related entries	1 ± 0.047	0.981 ± 0.038
UniProt P25705 and related entries	0.976 ± 0.028	0.99 ± 0.059
MCM5 (UniProt P33992)	1.01 ± 0.056	0.983 ± 0.013
UniProt P20020 and related entries	0.994 ± 0.067	1.04 ± 0.092
STMN1 (UniProt P16949)	0.937 ± 0.077	0.888 ± 0.076
AKAP5 (UniProt P24588)	0.931 ± 0.025	1.06 ± 0.04
UniProt P17480 and related entries	1.024 ± 0.0093	1.083 ± 0.0011
RPL12 (UniProt P30050)	0.913 ± 0.069	0.916 ± 0.086
UniProt P32121 and related entries	0.998 ± 0.074	1.02 ± 0.031
CCND3 (UniProt P30281)	0.941 ± 0.016	0.912 ± 0.01
BCKDHB (UniProt P21953)	1.16 ± 0.17	1.08 ± 0.044
UniProt P24539 and related entries	0.856 ± 0.15	0.839 ± 0.15
RBL1 (UniProt P28749)	1.04 ± 0.11	0.997 ± 0.098
UniProt P28702 and related entries	0.986 ± 0.047	0.9643 ± 0.0066

An excerpt of these results, comma-delimited:
Target,NP40-soluble protein abundance (concentration: 0.1mM),NP40-soluble protein abundance (concentration: 0.5mM)
UniProt P23497 and related entries,1.01 ± 0.029,0.997 ± 0.017
UniProt P29372 and related entries,1.03 ± 0.034,1.08 ± 0.022
JUND (UniProt P17535),0.93 ± 0.16,0.844 ± 0.16
HSPA4 (UniProt P34932),1 ± 0.035,1.01 ± 0.047
CHM (UniProt P24386),1 ± 0.065,1.04 ± 0.063
UniProt P28799 and related entries,1 ± 0.047,0.981 ± 0.038
UniProt P25705 and related entries,0.976 ± 0.028,0.99 ± 0.059
MCM5 (UniProt P33992),1.01 ± 0.056,0.983 ± 0.013
UniProt P20020 and related entries,0.994 ± 0.067,1.04 ± 0.092
STMN1 (UniProt P16949),0.937 ± 0.077,0.888 ± 0.076
AKAP5 (UniProt P24588),0.931 ± 0.025,1.06 ± 0.04
UniProt P17480 and related entries,1.024 ± 0.0093,1.083 ± 0.0011
RPL12 (UniProt P30050),0.913 ± 0.069,0.916 ± 0.086
